Measurements reported in PubChem BioAssay AID504764 (Drosophila RNAi Screening Center, 2011).
The screen tested about 22,000 reagents; shown is an unselected part of those that have a named target and a result. In the full data, 403 (1.9%) were called active. 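Unnormalised raw counts per well; ratio z-scores behind the hit calls and whether each hit raises or lowers signal are not deposited.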 Reagent sequences are not shown. Not given: the amount of reagent.

- Purpose: 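Knock-downs that raise or lower a Notch target reporter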 (primary screen)
- Cell system: Drosophila Kc167 cells
- Knock-down reagent: long dsRNA against Drosophila genes
- Time to read-out: about 5 days (4 days dsRNA, then 24 h after transfection)
- Conditions: transfection of constitutively active membrane-tethered Notch lacking the extracellular domain, read 24 h later
- Detection: 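Light from a Notch-responsive E(spl)m3 luciferase reporter under active Notch, with control-promoter and no-Notch reporter wells to normalise; raw counts from paired wells a and b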
- Scale: induced reporter light, run 1, well a and induced reporter light, run 1, well b: higher = more light from the Notch target reporter with active Notch; control promoter light, run 1, well a and control promoter light, run 1, well b: higher = more light from the viral control promoter (cell number, transfection, viability); uninduced reporter light, run 1, well a: higher = more light from the Notch target reporter without active Notch
- Rule for the call: 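Wells with low control signal or poorly matching duplicates excluded; duplicates averaged; per source plate, z beyond ±2 for induced/control log2 ratio or beyond ±1.8 for induced/uninduced marks a hit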
- Calls: active = modifier hit (raised or lowered Notch signal); inactive = not a hit

no.	predicted target	dsRNA	induced reporter light, run 1, well a	induced reporter light, run 1, well b	control promoter light, run 1, well a	control promoter light, run 1, well b	uninduced reporter light, run 1, well a	Call
1	Xrcc2	DRSC19984	82650	73335	1.02e5	75510	11475	inactive
2	CG12609	DRSC19473	1.51e5	1.39e5	1.40e5	1.85e5	13435	inactive
3	schlank	DRSC18102	1.17e5	1.12e5	2.20e5	2.26e5	9840	inactive
4	schlank	DRSC18313	1.06e5	1.21e5	2.22e5	1.83e5	8155	inactive
5	Cyp9f3	DRSC16636	78150	65735	65180	49850	4745	inactive
6	Lmx1a	DRSC09726	1.49e5	1.01e5	1.61e5	1.22e5	6465	inactive
7	Lmx1a	DRSC10275	8815	8365	10935	7315	3200	inactive
8	CG33998	DRSC05747	1.29e5	1.16e5	1.82e5	1.27e5	8130	inactive
9	CG31233	DRSC15888	1.43e5	1.54e5	1.77e5	1.57e5	10800	inactive
10	eIF3k	DRSC04056	2.27e5	2.41e5	1.51e5	1.70e5	19945	inactive
11	CG13293	DRSC09967	2.00e5	1.37e5	1.85e5	1.45e5	7530	inactive

Reformatted: entries from further up.
predicted target | dsRNA | induced reporter light, run 1, well a | induced reporter light, run 1, well b | control promoter light, run 1, well a | control promoter light, run 1, well b | uninduced reporter light, run 1, well a | Call
CG31233 | DRSC15888 | 1.43e5 | 1.54e5 | 1.77e5 | 1.57e5 | 10800 | inactive
eIF3k | DRSC04056 | 2.27e5 | 2.41e5 | 1.51e5 | 1.70e5 | 19945 | inactive

More entries:
no.	predicted target	dsRNA	induced reporter light, run 1, well a	induced reporter light, run 1, well b	control promoter light, run 1, well a	control promoter light, run 1, well b	uninduced reporter light, run 1, well a	Call
12	nmdyn-D6	DRSC20355	90295	68895	76990	68065	12390	inactive
13	Dbx	DRSC08270	97515	76595	1.05e5	91365	6045	inactive
14	Dbx	DRSC08271	1.26e5	1.03e5	1.51e5	1.41e5	6200	inactive
15	Dbx	DRSC08394	86885	1.26e5	1.80e5	1.60e5	9225	inactive
16	drosha	DRSC07607	1.18e5	1.14e5	1.11e5	98530	9970	inactive
17	CG5302 (retired record)	DRSC15764	2.41e5	2.27e5	2.29e5	2.15e5	17370	inactive
18	CG5302 (retired record)	DRSC15765	1.92e5	2.47e5	1.81e5	2.16e5	15930	inactive
19	CG13829	DRSC14679	1.74e5	1.48e5	2.05e5	1.99e5	12800	inactive
20	Cyp4c3	DRSC16631	2.04e5	2.52e5	1.31e5	1.18e5	11125	inactive
